For at least one compound, name, drawing or mass did not settle the structure.
Legend:
[1] = tested on: HIF-1α; test: Immunoblot of HIF-1α in hypoxic cells; type: cell-based; details: LS174 cells, hypoxia 72 h; added for the first 24 h of hypoxia
[2] = tested on: VDAC1-S; test: Immunoblot of VDAC1-S formation in hypoxic cells; type: cell-based; details: LS174 cells, hypoxia 72 h; added for the first 24 h of hypoxia

C[C@H]1c2cccc(O)c2C(=O)C2=C(O)[C@]3(O)C(=O)C(C(N)=O)=C(O)[C@@H](N(C)C)[C@@H]3[C@@H](O)[C@@H]21 [Doxycycline]
level of HIF-1α [1]: only a slight increase in the level of HIF-1α | formation of VDAC1-S [2]: diminish the formation of VDAC1-S

Source: patent publication EP2525224A1, “VDAC1-S as a cell marker” (Centre National de la Recherche Scientifique, priority 2011, dated 2012)
